Data as given in PubChem BioAssay AID1259308 (NCATS, 2017).

Screen: 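Candidate targets for better recombinant protein yield in mammalian cells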 (primary screen)
Cell system: human HEK293 embryonic kidney cells stably expressing firefly luciferase (HEK-CMV-Luc2-Hygro)
Knock-down reagent: single siRNA against human genes, 0.8 pmol siRNA per well
Timing: 72 h
Read-out: 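Reporter luminescence and viable-cell signal on separate replicate plates, given as percent of non-targeting control and median/MAD z-scores, plus per-cell luciferase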
Scale: total luciferase, z-score: higher = more reporter protein produced
Active means: 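Active when the median/MAD z-score for overall luciferase is greater than 3; a gene was taken forward for validation with new siRNAs if at least two of its three siRNAs passed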
Meaning of the calls: active = raised luciferase; inactive = no rise
This is a random part of about 59,000 reagents. About 1,510 of all reagents (2.6%) count as active. 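Calls use total luciferase alone and ignore viability, so some active siRNAs may act by altering cell number.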 The numbers tell different reagents against one gene apart. Not all columns of the deposit are shown.

total luciferase, z-score, by gene and reagent
LRRTM1 (GeneID 347730): #1 -0.35 inactive; #2 0.183 inactive; #3 -0.757 inactive
PLIN4 (GeneID 729359): #1 0.257 inactive; #2 1.24 inactive; #3 -0.161 inactive
MEGF10 (GeneID 84466): #1 0.545 inactive; #2 -0.262 inactive; #3 0.26 inactive
HMGN1P21 (GeneID 728325): #1 -2.17 inactive; #2 0.285 inactive; #3 0.793 inactive
CYB561D1 (GeneID 284613): #1 0.928 inactive; #2 0.139 inactive; #3 -0.466 inactive
GLUD2 (GeneID 2747): #1 -0.0239 inactive; #2 -2.46 inactive; #3 0.0806 inactive
TEX44 (GeneID 165100): #1 -1.51 inactive; #2 -1.14 inactive; #3 -2.5 inactive
RETSAT (GeneID 54884): #1 1.82 inactive; #2 -0.886 inactive; #3 -0.0349 inactive

Reformatted: entries from further up.
PLIN4 (GeneID 729359) #2 → total luciferase, z-score: 1.24; activity call: inactive
PLIN4 (GeneID 729359) #3 → total luciferase, z-score: -0.161; activity call: inactive
MEGF10 (GeneID 84466) #1 → total luciferase, z-score: 0.545; activity call: inactive
MEGF10 (GeneID 84466) #2 → total luciferase, z-score: -0.262; activity call: inactive
